Results from patent publication US20040072743A1 (priority 2000, published 2004).

Assay: general procedure: Boc solid-phase peptide synthesis; MBHA resin (loading 100 μmol/g); HBTU/DIEA (peptide part); HATU/DIEA (PNA monomers)
Details: whole synthesis, scale of the general procedure 50 mg resin

Substance: KFFKFFKFFK-b.ala-cha-ACTTTGTCGCCA-NH2
- final purity (method not given): 98%
